# Source: PubChem BioAssay AID1259424 (University of Nebraska Medical Center, 2018)
# Test: 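Seek colon cancer survival genes behaving like KSR1, using a six-gene signature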 (primary screen)
# Cells: human HCT116 colon cancer cells
# Knock-down reagent: siRNA pool against human genes, 50 nM
# Read-out: 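Log2 levels of six mRNAs (branched-DNA multiplex), adjusted by two reference genes and the non-targeting median, then scored against the average KSR1 knockdown pattern as Pearson r and euclidean distance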
# Scale: mean correlation with KSR1 profile and KSR1 correlation: higher = expression change more like KSR1 knockdown; mean distance from KSR1 profile: higher = expression change less like KSR1 knockdown
# The deposit covers about 14,000 reagents; shown is an unselected part. 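Higher correlation or smaller distance means closer resemblance to KSR1 loss; control wells, including KSR1 knockdowns, recur on many plates.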 Not given: the time to read-out.
gene,mean correlation with KSR1 profile,mean distance from KSR1 profile,"KSR1 correlation, replicate 1","KSR1 correlation, replicate 2","KSR1 correlation, replicate 3"
NFATC3,0.527,1.03,0.665,0.785,0.491
RPLP1,0.16,1.29,0.133,-0.0655,0.405
KPTN,0.397,1.71,0.687,0.702,-0.0167
PRRX2,0.175,3.81,-0.0292,0.533,-0.377
MNT,0.128,1.61,0.291,0.309,0.134
SULT1A1,-0.032,3.76,-0.0409,0.0245,-0.0952
RASL11B,0.889,0.643,0.939,0.543,0.564
MYL6,-0.562,3.36,-0.795,-0.405,-0.533
WWC3,0.0452,2.41,0.0687,-0.192,0.0852
AKR7A2,-0.0621,2.33,0.369,-0.292,0.26
ADNP2,0.574,1.89,0.631,0.27,0.607
SELENOT,-0.627,4.69,-0.51,-0.695,-0.572
EDA,-0.651,1.63,-0.737,-0.342,-0.599
C9,-0.389,3.6,-0.412,-0.445,-0.37
CYP2E1,0.0331,1.27,-0.0357,-0.186,0.32
SYDE2,0.515,2.11,0.461,0.351,0.524
TRIM17,-0.653,2.92,-0.405,-0.552,-0.613
PPP4R3B,-0.392,2.14,0.0864,-0.652,-0.526
OXER1,0.699,2.17,0.701,0.74,0.745
ALOXE3,-0.746,3.15,-0.682,-0.873,-0.651
